According to PMC11467429:
Results are given in words; binding and its absence hold for the method and conditions named. A result given as binding can be weak or reduced; the word gives no strength.

Amino acid sequences for entries named in this document (tags omitted). A change or cut given only in a name is not applied to a line headed by its entry.
UniProt Q7Z419: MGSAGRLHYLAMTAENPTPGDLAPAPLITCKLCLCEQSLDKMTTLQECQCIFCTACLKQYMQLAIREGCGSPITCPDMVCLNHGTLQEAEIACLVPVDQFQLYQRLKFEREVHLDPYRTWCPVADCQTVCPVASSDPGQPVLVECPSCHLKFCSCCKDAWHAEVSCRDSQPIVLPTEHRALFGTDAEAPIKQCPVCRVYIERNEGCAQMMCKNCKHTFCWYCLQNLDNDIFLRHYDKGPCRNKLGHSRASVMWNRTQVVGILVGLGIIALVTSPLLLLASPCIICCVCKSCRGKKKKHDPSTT
UniProt Q9BYX4: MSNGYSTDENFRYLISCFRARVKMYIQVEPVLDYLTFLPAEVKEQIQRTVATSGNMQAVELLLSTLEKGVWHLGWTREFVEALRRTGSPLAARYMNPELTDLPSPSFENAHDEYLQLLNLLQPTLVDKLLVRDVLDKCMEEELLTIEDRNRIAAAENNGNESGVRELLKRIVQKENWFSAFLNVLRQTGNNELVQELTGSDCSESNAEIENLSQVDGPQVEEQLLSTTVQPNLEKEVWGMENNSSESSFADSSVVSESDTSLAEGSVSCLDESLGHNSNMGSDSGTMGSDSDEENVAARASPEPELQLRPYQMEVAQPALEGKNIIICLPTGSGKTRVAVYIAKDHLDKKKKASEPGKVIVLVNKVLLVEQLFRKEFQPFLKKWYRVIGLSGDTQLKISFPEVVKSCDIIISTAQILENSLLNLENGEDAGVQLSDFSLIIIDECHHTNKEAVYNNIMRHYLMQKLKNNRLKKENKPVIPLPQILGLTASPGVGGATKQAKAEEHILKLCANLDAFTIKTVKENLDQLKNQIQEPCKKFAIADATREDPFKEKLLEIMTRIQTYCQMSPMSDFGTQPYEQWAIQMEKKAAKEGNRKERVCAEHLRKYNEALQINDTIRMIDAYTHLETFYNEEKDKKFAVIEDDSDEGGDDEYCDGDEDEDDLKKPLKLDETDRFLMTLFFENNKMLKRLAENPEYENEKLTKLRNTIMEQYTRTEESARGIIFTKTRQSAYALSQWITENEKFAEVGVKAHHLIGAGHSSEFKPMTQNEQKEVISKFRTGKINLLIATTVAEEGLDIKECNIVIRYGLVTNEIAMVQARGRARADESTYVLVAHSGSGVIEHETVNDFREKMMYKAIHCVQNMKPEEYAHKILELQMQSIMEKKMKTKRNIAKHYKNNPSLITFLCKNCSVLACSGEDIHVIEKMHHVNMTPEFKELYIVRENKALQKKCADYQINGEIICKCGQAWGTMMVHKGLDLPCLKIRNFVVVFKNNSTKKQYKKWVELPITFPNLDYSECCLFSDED

Molecular target: GST-RNF144B (UniProt Q7Z419)
Assay: pull-down; GST or GST-RNF144B (12 μg) and MDA5-Flag proteins incubated with glutathione agarose overnight at 4 °C, washed three times with PBS, immunoblot; both purified

## Flag-tagged MDA5 (from UniProt Q9BYX4 1-1025)
  binding: binds
